Measured values: patent US20110143394

By UniProt entry, the sequences of proteins in these tests, tags left out. Where a name states a change or a piece, a line headed by the entry shows the natural chain unless it says otherwise.
UniProt Q9K492: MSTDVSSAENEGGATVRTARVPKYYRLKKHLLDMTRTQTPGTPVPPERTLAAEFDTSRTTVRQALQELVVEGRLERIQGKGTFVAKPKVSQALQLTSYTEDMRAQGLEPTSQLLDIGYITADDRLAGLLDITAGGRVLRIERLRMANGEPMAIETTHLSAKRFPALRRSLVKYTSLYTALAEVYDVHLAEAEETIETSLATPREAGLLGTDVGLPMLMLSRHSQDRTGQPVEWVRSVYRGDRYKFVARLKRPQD

Target: DasR (SCO5231) (Streptomyces coelicolor) (UniProt Q9K492)
Test: footprint
Conditions: 10-80 pmol DasR; BSA no protection; purified recombinant protein; protein details: His6; label: 32P

“ACCTTGCTACGCATCGCTCAACCCCAGGCAGGAGTGACGACTGTACACGGGGCCGCGGAACGGGTGCAAATCCGTGAGGAGTGTGGTCTAGACCTCTAATCGGAACACTCATGCGGAACCGGTACTTCCTATGACATACCCTGCTGCTCAGTGTGCCGTCCGGGACAAGGCAGTGACGGCCCGTACAGATCCCCGCCCTGGGAGGCTTCCCATGACCACCGTCTCGTCCCCGCTCGCAGGA (double strand) [crr-ptsI promoter footprint probe (-202/+8)]”: binds.
